From article PMC7532664
Results are given in words; binding and its absence hold for the method and conditions named. Binding seen in cells or lysates may run through a third protein. Some entries that bind do so weakly or less than the wild type.

The chains behind the UniProt entries cited, without tags or fusion partners.
UniProt O75909: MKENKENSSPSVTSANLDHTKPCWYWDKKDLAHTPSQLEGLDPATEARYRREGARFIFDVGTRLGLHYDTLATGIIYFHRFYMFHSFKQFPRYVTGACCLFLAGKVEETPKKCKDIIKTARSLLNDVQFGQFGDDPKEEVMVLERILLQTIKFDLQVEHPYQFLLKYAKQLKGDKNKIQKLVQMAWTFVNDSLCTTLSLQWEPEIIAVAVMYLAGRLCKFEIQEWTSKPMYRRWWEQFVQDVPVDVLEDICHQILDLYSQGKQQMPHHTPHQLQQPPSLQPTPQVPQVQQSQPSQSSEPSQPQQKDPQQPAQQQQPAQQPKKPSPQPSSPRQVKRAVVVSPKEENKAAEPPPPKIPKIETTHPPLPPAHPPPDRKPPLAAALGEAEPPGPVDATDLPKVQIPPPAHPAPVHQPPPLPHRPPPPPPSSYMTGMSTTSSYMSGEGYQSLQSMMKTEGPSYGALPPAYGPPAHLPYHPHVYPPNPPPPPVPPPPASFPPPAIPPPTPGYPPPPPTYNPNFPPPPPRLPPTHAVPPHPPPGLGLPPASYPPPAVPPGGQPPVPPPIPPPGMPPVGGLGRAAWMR
UniProt P35222: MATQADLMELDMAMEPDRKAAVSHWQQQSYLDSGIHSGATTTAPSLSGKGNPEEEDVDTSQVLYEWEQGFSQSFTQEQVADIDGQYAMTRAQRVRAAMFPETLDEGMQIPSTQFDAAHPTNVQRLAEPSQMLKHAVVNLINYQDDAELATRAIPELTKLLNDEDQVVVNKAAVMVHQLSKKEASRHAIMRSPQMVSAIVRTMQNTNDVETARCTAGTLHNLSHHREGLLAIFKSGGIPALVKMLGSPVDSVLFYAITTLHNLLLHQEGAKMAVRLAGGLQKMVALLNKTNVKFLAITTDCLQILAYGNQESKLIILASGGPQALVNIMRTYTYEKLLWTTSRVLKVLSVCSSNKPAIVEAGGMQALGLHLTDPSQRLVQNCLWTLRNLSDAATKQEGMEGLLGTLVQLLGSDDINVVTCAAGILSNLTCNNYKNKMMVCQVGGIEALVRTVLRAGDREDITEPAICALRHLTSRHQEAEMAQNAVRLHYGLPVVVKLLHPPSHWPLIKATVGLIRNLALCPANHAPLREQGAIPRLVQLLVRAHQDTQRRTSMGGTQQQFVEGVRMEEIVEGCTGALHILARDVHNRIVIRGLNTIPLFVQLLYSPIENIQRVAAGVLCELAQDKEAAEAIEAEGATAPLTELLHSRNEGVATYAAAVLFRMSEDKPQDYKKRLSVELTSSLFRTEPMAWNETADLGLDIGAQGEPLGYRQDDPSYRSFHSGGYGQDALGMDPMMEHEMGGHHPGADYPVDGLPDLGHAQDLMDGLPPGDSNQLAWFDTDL

Tests used:
[1] = molecular target: GST-Cyclin K fusion protein (UniProt O75909); test: pull-down; GST-Cyclin K immobilized on GST beads, incubated overnight at 4°C with lysates of HEK293T cells transfected with Flag-β-catenin; washed four times; Western blot; only the target purified
[2] = molecular target: Cyclin K (endogenous) (human (endogenous in A549 and H460)) (UniProt O75909); test: co-IP; endogenous; A549 and H460 lysates incubated with anti-Cyclin K antibody, then protein A/G agarose overnight; IgG as negative control; Western blot
SFB-Cyclin K = SFB-Cyclin K (UniProt O75909); test: co-IP; A549 and H460 cells transfected with SFB-Cyclin K for 24 h, lysed in NETN, incubated with S beads overnight; washed four times with NETN; Western blot

| Substance | binding [1] | binding [2] | binding (SFB-Cyclin K) |
| --- | --- | --- | --- |
| Flag-β-catenin (from UniProt P35222 1-781) | binds | – | – |
| β-catenin (endogenous) (from UniProt P35222 1-781) | – | binds | binds |
